## Library screen at single concentrations

Protein sequences, listed by entry. Tags and fused reporters are not part of them. Residues count along the entry.
UniProt Q8IDJ8, 1-583: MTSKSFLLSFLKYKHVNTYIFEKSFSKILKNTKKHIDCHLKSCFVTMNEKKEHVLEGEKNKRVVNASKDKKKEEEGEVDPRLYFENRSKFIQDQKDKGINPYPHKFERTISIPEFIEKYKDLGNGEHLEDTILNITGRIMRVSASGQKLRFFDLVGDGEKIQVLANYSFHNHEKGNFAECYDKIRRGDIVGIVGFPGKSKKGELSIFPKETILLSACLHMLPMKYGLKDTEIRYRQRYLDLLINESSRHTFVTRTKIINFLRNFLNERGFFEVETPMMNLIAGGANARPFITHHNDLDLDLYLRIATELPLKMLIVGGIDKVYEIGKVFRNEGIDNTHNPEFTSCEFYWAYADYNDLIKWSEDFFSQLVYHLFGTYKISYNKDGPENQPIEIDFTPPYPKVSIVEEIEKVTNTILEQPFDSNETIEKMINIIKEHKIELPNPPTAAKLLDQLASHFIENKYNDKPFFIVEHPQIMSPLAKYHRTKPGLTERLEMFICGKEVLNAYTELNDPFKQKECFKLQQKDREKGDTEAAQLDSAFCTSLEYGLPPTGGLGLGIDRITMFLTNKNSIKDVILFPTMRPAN
UniProt Q4DA54, 1-478: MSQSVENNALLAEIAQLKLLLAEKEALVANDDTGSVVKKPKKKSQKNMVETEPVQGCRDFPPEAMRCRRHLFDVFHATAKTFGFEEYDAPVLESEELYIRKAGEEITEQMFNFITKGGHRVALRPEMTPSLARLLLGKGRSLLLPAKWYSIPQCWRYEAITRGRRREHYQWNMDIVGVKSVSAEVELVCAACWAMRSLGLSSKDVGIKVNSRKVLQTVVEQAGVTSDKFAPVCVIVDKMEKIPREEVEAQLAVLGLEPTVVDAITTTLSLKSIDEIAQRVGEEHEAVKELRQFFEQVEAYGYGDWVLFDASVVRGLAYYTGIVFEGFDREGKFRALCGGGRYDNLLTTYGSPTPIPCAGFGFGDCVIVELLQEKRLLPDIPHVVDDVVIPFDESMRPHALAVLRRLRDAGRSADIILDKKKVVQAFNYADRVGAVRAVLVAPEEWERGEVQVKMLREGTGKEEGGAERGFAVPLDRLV

Leishmania in macrophages: 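Cell assay of Leishmania donovani living inside macrophages; the read-out is not stated. Concentration: 30 µM. Higher reads as stronger inhibition (inferred: compounds with an IC50 in retests scored well above the rest). About 69,000 compounds were tested under these conditions; 1.5% (about 1,000) showed 50% or more at least once.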
T. brucei: 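Whole-parasite assay of Trypanosoma brucei over 72 hours; the read-out is not stated. Compounds at 30 µM. Higher reads as stronger inhibition (inferred: compounds with an IC50 in retests scored well above the rest). Values scatter widely below zero; nearly all retest evidence comes from the higher of the two concentrations used. Of about 64,000 compounds tested this way, about 940 (1.5%) reached 50% or more in at least one test.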
Toxoplasma: 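Assay of Toxoplasma gondii numbers, read through their beta-galactosidase reporter with a colour substrate. Tested at 10 µM. The record gives no direction; the compounds picked for IC50 retests had high values, so higher reads as fewer parasites. About 67,000 compounds were tested under these conditions; 0.38% (about 260) showed 50% or more at least once.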
PfKRS1: 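Lysine-tRNA ligase, Plasmodium falciparum 3D7 (UniProt Q8IDJ8). Enzyme assay of the cytosolic lysyl-tRNA synthetase in 384-well plates, read by luminescence. Compounds at 30 µM. Higher reads as stronger inhibition, judged from the few compounds that gave an IC50. About 69,000 compounds were tested under these conditions; 0.071% (about 49) showed 50% or more at least once.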
TcHisRS: 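Enzyme assay of histidyl-tRNA synthetase; the read-out is not stated. Target: Histidine-tRNA ligase, Trypanosoma cruzi CL Brener (UniProt Q4DA54). Compounds at 30 µM. Direction is inferred from retests: higher values go with stronger inhibition. Of about 69,000 compounds tested this way, about 31 (0.045%) reached 50% or more in at least one test.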

Results are given as percent effect.
How 0% and 100% were set is not recorded. Most values in the screen are low, and negative values occur.
Compounds were drawn at random from those tested, without regard to their results.
Two or more numbers in one place are separate tests of the same structure; such repeats can differ widely.
A dash means the value is not listed here; it may have been measured.

| SMILES | Leishmania in macrophages | T. brucei | Toxoplasma | PfKRS1 | TcHisRS |
|---|---|---|---|---|---|
| `CC(C)c1noc(CN2CCC(c3ccnn3CCO)CC2)n1` | -32.4 | -8.45 | -0.1258 | 3.951 | 1.729 |
| `COc1ccccc1C(C)(C)NCc1ccco1` | 7.911 | -33.69 | -6.768 | -0.6298 | 4.124 |
| `COC(=O)c1cccc(C(=O)N(C)Cc2cccc(O)c2)c1` | -4.136 | -35.06 | 39.4 | 0.7564 | 4 |
| `CC1CN(c2ccc(CNC(=O)NCCO)cn2)CCO1` (stereo not drawn) | 31.48 | -7.953 | 3.127 | 5.751 | -2.02 |
| `O=C(O)C(F)(F)F.c1nc(COCC2CC2)c2n1CCCN(CC1CC1)C2` | 12.86 | 1.135 | 0.2137 | - | - |
| `[H][C@]12CN(c3ncccn3)C[C@@]1([H])S(=O)(=O)CC[C@@H]2C(=O)N(C)C` | 16.69 | -0.441 | 5.226 | - | - |
| `CC(=O)N1C[C@@H]2CC[C@H](C1)N(S(=O)(=O)c1cc(F)ccc1C)C2` | - | - | - | 6.355 | 2.146 |
| `CC(OCCCNC(=O)c1cccnc1O)c1ccccc1` (stereo not drawn) | 11.48 | -16.66 | 39.02 | -2.533 | 6 |
| `CCOc1ccc2ccccc2c1CNCC1CCNCC1.Cl.Cl` | 87.01 | - | 68.87 | - | - |
| `O=C(O)C(F)(F)F.O=C(O)C(F)(F)F.[H][C@@]12COC[C@]1(CNS(=O)(=O)CC)CN(Cc1cccnc1OC)C2` | -3.146 | -6.996 | -8.341 | - | - |
| `CC(C)c1nc(CN(C)C(=O)Cn2nc3ccccc3n2)no1` | 7.065 | -33.4 | -2.049 | 2.109 | 6.494 |
| `Cc1ccc(NC2CCN(C(=O)c3cscn3)CC2)nn1` | 20.24 | - | -18.88 | 1.134 | 3.429 |
| `CC(C)NC(=O)N1CCC(c2nnc3ccc(C(=O)N(C)C)cn23)C1` (stereo not drawn) | 2.113 | -12.37 | 16.02 | -0.01143 | 6.897 |
| `CC(c1cc(F)ccc1F)N(C)C(=O)NCc1ccnc(N(C)C)c1` (stereo not drawn) | 34.39 | 2.068 | -32.59 | 0.5905 | 5.187 |
| `O=C(O)c1ccc2c(CN3CCCC3)c[nH]c2c1` | 26.43 | -29.97 | -8.666 | 3.266 | 4.39 |
| `O=S1(=O)CCC(n2cc(C3=CCN(CCN4CCCCC4)CC3)cn2)C1` (stereo not drawn) | 29.21 | -83.82 | -0.4327 | 2.8 | 6.494 |
| `Fc1cccc(-c2nc(CN3CCCC3Cn3cncn3)co2)c1` (stereo not drawn) | 23.45 | -6.439 | -20.68 | -0.7873 | 2.305 |
| `COCCC1(CO)CCCN(C(=O)CCC(F)(F)F)C1` (stereo not drawn) | 3.919 | -12.8 | 12.6 | 4.111 | 6.154 |
| `COCCN(Cc1cccc(C#N)c1)Cc1nc(C)no1` | 15.46 | -57.7 | 4.385 | -4.549 | 0.8772 |
| `NC(=O)c1cc(C2CCCN(CCOCC(F)(F)F)C2)n[nH]1` (stereo not drawn) | -8.196 | -14.17 | 29.1 | -1.032 | -2.29 |
| `Cc1csc(CN(C)C(=O)C2CCC(=O)N(CCN(C)C)C2)n1` (stereo not drawn) | 13.69 | -23.96 | 2.189 | -2.138 | 1.63 |
| `CC(=O)c1cccc(C(=O)N2C[C@@H](CN3CCCCCC3)[C@@H](CO)C2)c1` | 15.23 | -16.93 | 6.453 | 8.898 | 17.88 |
| `O=C(O)C(F)(F)F.O=C(O)C(F)(F)F.[H][C@@]12C[C@@H](Oc3cccc(F)c3)CN1CCN(Cc1ccccn1)C2` | 12.72 | -10.65 | -5.939 | - | - |
| `CCCOc1cc(C)ccc1NC(=O)NCCNC(=O)C(C)C` | -16.43 | - | 14.38 | 2.964 | 0.8772 |
| `Cc1occc1-c1nnc2n1NC(N)=C(C#N)S2` | 9.666 & 19.47 | -45.85 | -8.395 | 10.16 | 2.439 |
| `CCN1C[C@@H]2CN(c3cc(OC)ncn3)CCC[C@]2(C(=O)O)C1` | - | - | - | 3.88 | 2.151 |
| `Cc1cc(=O)[nH]c(-n2nc(C)c(CCC(=O)NCc3cccs3)c2C)n1` | 15.86 | -21.82 | 2.794 | -1.733 | 4.523 |
| `COCC(=O)Nc1ccc(-c2noc([C@@H]3CCCN3CC(C)C)n2)cn1` | -8.367 | -56.25 | -11.87 | 1.455 | 7.921 |
| `Cn1cccc1C(=O)N1CCC2(CC1)COC(COc1ccccn1)C2.O=C(O)C(F)(F)F` (stereo not drawn) | 5.245 | 24.65 | 1.249 | - | - |
| `CN1CCO[C@H]2CN(S(=O)(=O)c3ccc(C#N)cc3)C[C@H]21` | - | - | - | -1.07 | -1.604 |
| `Cc1ccc(CNCC2CCCn3ccnc32)s1` (stereo not drawn) | -3.083 | 6.823 | 19.38 | -2.039 | 3.911 |
| `Cc1nn2cnnc2c(C)c1CCC(=O)Nc1nnc(C(C)C)s1` | 0.8218 | -1.061 | 2.117 | 1.305 | 7.216 |
| `Cc1nc(C)n(CC2CCCN2CCOc2ccc(F)cc2)n1` (stereo not drawn) | 11.48 | - | -21.17 | 0.3815 | 4 |
| `COCCNC(=O)CN(C)Cc1ccc(F)cc1Cl` | 19.06 | -27.26 | -10.15 | 2.616 | 2.116 |
| `O=C(O)C(F)(F)F.O=C(O)C(F)(F)F.[H][C@@]12CCN(Cc3ccncc3)C[C@@]1([H])O[C@H](C(=O)NC1CCC1)C2` | 22.95 | 47.95 | 7.692 | - | - |
| `c1csc(CN2CCO[C@H]3[C@H](OCC4CCCC4)CC[C@@H]32)n1` | - | - | - | 7.16 | 5.882 |
| `CCCc1nc(C)c(C(=O)NS(=O)(=O)c2ccc(C#N)cc2)s1` | -0.8574 | 9.664 | -4.616 | 0.6244 | 0 |
| `O=C1CC2(CCN(CCO)CC2)CN1Cc1cc(F)cc(F)c1` | 24.96 | 3.789 | -0.05816 | 4.773 | -0.813 |
| `COc1ccc2[nH]cc(C(=O)N3CC[C@H](CO)[C@@H](O)C3)c(=O)c2c1` | 6.599 | -44.12 | 2.924 | 7.311 | 3.061 |
| `COc1ccc(S(=O)(=O)C(C)C(=O)NCCOc2cccc(C)c2)cc1` (stereo not drawn) | -6.385 | -3.856 | 1.661 | 7.9 | 8.621 |
| `COCCOC(=O)N1CC2=CC(C)(C)COc3ccc(OC)c(c32)C1` | -23.33 | -25.26 | 25.7 | 3.864 | 7.865 |
| `O=C(O)C(F)(F)F.[H][C@@]12CCN(Cc3ccsc3)[C@]1([H])CC[C@H](C(=O)N1CCOCC1)O2` | 10.57 | 5.695 | 0.6761 | - | - |
| `[H][C@]12CCN(Cc3cccc(C)c3)[C@@]1([H])C[C@H](C(=O)N1CCN(C)CC1)O2` | 32.43 | 2.759 | -20.24 | - | - |
| `Cc1nc(C)n(CC2CN(CCCOc3ccc(F)cc3)CCO2)n1` (stereo not drawn) | 34.96 | 20.42 | -19.3 | 1.522 | 3.955 |
| `Cc1csc(S(=O)(=O)N2CCN(C)C3(CCC(=O)N(C)CC3)C2)c1` (stereo not drawn) | 10.65 | -44.22 | -1.757 | 1.721 | -3.614 |
| `Cc1nnc([C@@]23CCO[C@@H]2CCN(Cc2ccc4c(c2)OCO4)C3)o1` | - | - | - | 1.074 | 6.533 |
| `Cn1ncc2c1C(COCC1CC1)CN(C(=O)Cc1ccsc1)C2` (stereo not drawn) | 13.71 & 9.942 | -64.16 | -3.16 | -2.662 | 3.226 |
| `CCOCCC(=O)N1CCCN(Cc2csc(CC)n2)CC1` | 19 | -7.53 | -4.218 | 3.654 | 8.647 |

Once more, the final 5:

SMILES,Leishmania in macrophages,T. brucei,Toxoplasma,PfKRS1,TcHisRS
Cc1nc(C)n(CC2CN(CCCOc3ccc(F)cc3)CCO2)n1 (stereo not drawn),34.96,20.42,-19.3,1.522,3.955
Cc1csc(S(=O)(=O)N2CCN(C)C3(CCC(=O)N(C)CC3)C2)c1 (stereo not drawn),10.65,-44.22,-1.757,1.721,-3.614
Cc1nnc([C@@]23CCO[C@@H]2CCN(Cc2ccc4c(c2)OCO4)C3)o1,-,-,-,1.074,6.533
Cn1ncc2c1C(COCC1CC1)CN(C(=O)Cc1ccsc1)C2 (stereo not drawn),13.71 & 9.942,-64.16,-3.16,-2.662,3.226
CCOCCC(=O)N1CCCN(Cc2csc(CC)n2)CC1,19,-7.53,-4.218,3.654,8.647

Measurements from “University of Dundee, Small-Polar-MMV Screening Library” (2021), ChEMBL document CHEMBL3988442.